The target of the series is T1, midkine (AP-MK) (Homo sapiens) (UniProt P21741).
T1 sequence (looked up): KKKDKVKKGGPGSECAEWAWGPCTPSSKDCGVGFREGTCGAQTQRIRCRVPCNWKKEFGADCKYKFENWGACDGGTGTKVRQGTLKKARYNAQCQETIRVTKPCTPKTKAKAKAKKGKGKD
The series can be described thus: inhibition of the protein. The note with it: 2'-OMe at 1-3 and 38-40; 2'-F at all other pyrimidines; negative control; inhibitory effect significantly small versus 7-1, TNB1 cells; protein in a lysate after overexpression; dose not given here.

The values that follow come from patent US20150353933, “APTAMER AGAINST MIDKINE AND APPLICATIONS THEREOF” (RIBOMIC INC., published 2015).

The comparison behind a weaker result is the experiment's own reference, which may not be listed here. Protein sequences can lack the tags named with them.

For “GCCAUGGUGGUCAACCGUCGGUAUUGCCGCAGUUACUGGC [SEQ ID NO: 19 negative control]”, the “functional effect of the aptamer” value was “less active”.
